Results are given in words; binding and its absence hold for the method and conditions named. In cells and extracts the contact can be indirect. Some results given as binding are weak or reduced against the parent protein; the word gives no strength. Tags and fused reporters may be left off the sequences shown.
Target: heart and neural crest derivatives expressed 1 (Hand1), Flag-tagged and HA-tagged copies (mouse) (UniProt Q64279)
Assay: co-IP; JEG-3 cells co-transfected with HA-Hand1 and Flag-Hand1, treated with or without VC; Western with a Flag antibody

B1: heart and neural crest derivatives expressed 1 (Hand1), Flag-tagged and HA-tagged copies (protein, UniProt Q64279 1-216)
chain: MNLVGSYAHHHHHHHSHPPHPMLHEPFLFGPASRCHQERPYFQSWLLSPADAAPDFPAGGPPPTTAVAAAAYGPDARPSQSPGRLEALGSRLPKRKGSGPKKERRRTESINSAFAELRECIPNVPADTKLSKIKTLRLATSYIAYLMDVLAKDAQAGDPEAFKAELKKTDGGRESKRKRELPQQPESFPPASGPGEKRIKGRTGWPQQVWALELNQ
- binding: binds
